Reference: PubChem BioAssay AID1053208 (Peter MacCallum Cancer Centre, 2014)
Purpose: 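Genes whose silencing cuts survival of bone tumour cells only with doxorubicin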 (primary screen). Cell system: mouse osteosarcoma cells, early-passage culture from an engineered mouse model of fibroblastic bone tumour. Knock-down reagent: siRNA pool against mouse genes, 40 nM. Time to read-out: about 120 h (48 h before drug, then 72 h with drug). Conditions: doxorubicin 100 nM for 72 h, roughly 30-40% inhibitory dose. Detection: 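Luminescent ATP signal taken as viability with or without 100 nM doxorubicin for 72 h; mean of two wells set against non-targeting siRNA and turned into robust z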. Scale: viability z-score with doxorubicin: higher = more viable cells under doxorubicin; viability z-score without drug: higher = more viable cells with knock-down alone. Hit rule: 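Called active if knock-down leaves viability unchanged without drug (z within -2 to 2) but lowers it with doxorubicin (z at or under -2)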.
Shown is a random part of about 17,000 deposited reagents. Over the whole deposit, 788 (4.7%) are marked active. 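Calls rest on z-score classes alone; an extra cut-off of viability at most 70% of control was not applied to them.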 A number with no mark means an inactive call. Not all columns of the deposit are shown. Reagent sequences are not shown.

The first 2 records, to show the layout:
Rpa1 | combined z-score class: low cell count with and without drug; viability z-score with doxorubicin: -7.42; viability z-score without drug: -4.38
Hykk | combined z-score class: no change with or without drug; viability z-score with doxorubicin: 0.22; viability z-score without drug: 0

The list itself, from the first entry:
Rpa1 | combined z-score class: low cell count with and without drug; viability z-score with doxorubicin: -7.42; viability z-score without drug: -4.38
Hykk | combined z-score class: no change with or without drug; viability z-score with doxorubicin: 0.22; viability z-score without drug: 0
Krtap13-20 | combined z-score class: no change with or without drug; viability z-score with doxorubicin: 1.69; viability z-score without drug: 1.69
Cuzd1 | combined z-score class: no change with or without drug; viability z-score with doxorubicin: 0.22; viability z-score without drug: -0.67
Gucy1a1 | combined z-score class: no change with or without drug; viability z-score with doxorubicin: 1.12; viability z-score without drug: -0.34
Rad23b | combined z-score class: no change with or without drug; viability z-score with doxorubicin: 0.56; viability z-score without drug: -1.52
Med9 | combined z-score class: no change with or without drug; viability z-score with doxorubicin: 1.12; viability z-score without drug: 0.17
Galnt3 | combined z-score class: no change with or without drug; viability z-score with doxorubicin: -0.9; viability z-score without drug: -0.51
Ccdc125 | combined z-score class: low cell count without drug only; viability z-score with doxorubicin: -1.12; viability z-score without drug: -2.87
Lhx4 | combined z-score class: low cell count with doxorubicin only (active); viability z-score with doxorubicin: -2.47; viability z-score without drug: 0.34
Ssu72 | combined z-score class: no change with or without drug; viability z-score with doxorubicin: -0.22; viability z-score without drug: -0.17
Spata31d1d | combined z-score class: low cell count without drug only; viability z-score with doxorubicin: 0; viability z-score without drug: -2.19
Klra17 | combined z-score class: no change with or without drug; viability z-score with doxorubicin: 0.56; viability z-score without drug: 1.69
3110070M22Rik | combined z-score class: no change with or without drug; viability z-score with doxorubicin: 1.12; viability z-score without drug: 0
Or12e7 | combined z-score class: no change with or without drug; viability z-score with doxorubicin: 0.22; viability z-score without drug: -1.18
Gata1 | combined z-score class: no change with or without drug; viability z-score with doxorubicin: -0.34; viability z-score without drug: -1.18
Cst5 | combined z-score class: no change with or without drug; viability z-score with doxorubicin: 0.9; viability z-score without drug: -0.34
Gid4 | combined z-score class: no change with or without drug; viability z-score with doxorubicin: -0.67; viability z-score without drug: 0.51
Eci1 | combined z-score class: no change with or without drug; viability z-score with doxorubicin: 1.69; viability z-score without drug: 0.67
Ethe1 | combined z-score class: no change with or without drug; viability z-score with doxorubicin: 1.35; viability z-score without drug: 0.67
Ptpn12 | combined z-score class: no change with or without drug; viability z-score with doxorubicin: 0.79; viability z-score without drug: -0.17
Ddx28 | combined z-score class: no change with or without drug; viability z-score with doxorubicin: 0.22; viability z-score without drug: 0.51
Ccl9 | combined z-score class: no change with or without drug; viability z-score with doxorubicin: 1.12; viability z-score without drug: 0.67
Epyc | combined z-score class: no change with or without drug; viability z-score with doxorubicin: 0; viability z-score without drug: 1.85
Pigh | combined z-score class: high cell count with doxorubicin only; viability z-score with doxorubicin: 2.02; viability z-score without drug: 1.85
4930544G11Rik | combined z-score class: high cell count without drug only; viability z-score with doxorubicin: 1.35; viability z-score without drug: 2.02
Pitx1 | combined z-score class: no change with or without drug; viability z-score with doxorubicin: -0.9; viability z-score without drug: 1.52
Mapre2 | combined z-score class: no change with or without drug; viability z-score with doxorubicin: -0.45; viability z-score without drug: -0.67
Flt4 | combined z-score class: no change with or without drug; viability z-score with doxorubicin: -0.45; viability z-score without drug: 0.51
Slc17a6 | combined z-score class: no change with or without drug; viability z-score with doxorubicin: -0.22; viability z-score without drug: -0.17
Csf2ra | combined z-score class: no change with or without drug; viability z-score with doxorubicin: -0.9; viability z-score without drug: 1.18
Usp7 | combined z-score class: no change with or without drug; viability z-score with doxorubicin: -0.45; viability z-score without drug: 0.17
Drc11 | combined z-score class: high cell count without drug only; viability z-score with doxorubicin: -0.34; viability z-score without drug: 2.19
Pxmp4 | combined z-score class: no change with or without drug; viability z-score with doxorubicin: -0.67; viability z-score without drug: 1.18
Ssx2ip | combined z-score class: no change with or without drug; viability z-score with doxorubicin: 0.22; viability z-score without drug: -0.34
Sufu | combined z-score class: high cell count with doxorubicin only; viability z-score with doxorubicin: 2.02; viability z-score without drug: 0.67
